Results reported in PubChem BioAssay AID493014 (National Center for Advancing Translational Sciences (NCATS), 2011).
Among all 340,000 compounds or so, about 170 (0.05%) were called active. This list was built around the results that the source calls inconclusive (neither active nor inactive); the mix of calls is not that of the screen. The call rests on the fitted dose curve; in most records, active means well fitted inhibition curve with a large enough effect in the signal ratio, with a control signal flat (not every such curve was filed as active); inconclusive means small, poorly fitted or top-dose-only effect, or effect the other way, or a change in a side signal; inactive means flat fitted curve, though single readings scatter; the % refers to the signal ratio. A potency beside an inconclusive call is a rough fit, not a confirmed value.

Experiment: qHTS Assay to Find Inhibitors of Chronic Active B-Cell Receptor Signaling;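 on activity change, negative = inhibition: plate controls were basal doxycycline-induced cells for no effect and cells given 10 µM MG132 for full effect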
Conditions: ABC-DLBCL IkBa-CBG/CBR reporter, luminescence ratio (green luciferase fused to IkBa over red control in TMD8 lymphoma cells), 4 h; activity change, negative = inhibition: at 46.1 µM (top of the series) unless noted
Procedure, shortened: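 Concentration-response series (up to 46 uM) were applied to TMD8 dual-reporter cells for 4 h at 37C with doxycycline. Green/red ratio, after filter-overlap correction, defined %Activity; red signal alone was normalised to basal cells and zero luminescence.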
Potency means the concentration at half of the fitted maximal effect.

Row | SMILES | activity change, negative = inhibition | Potency
1 | O=C(Cc1cccc(C(F)(F)F)c1)NCc1cccc(Cl)c1 | inactive | –
2 | CN(C)c1ccc(/C=N\Nc2ccccn2)cc1 | inconclusive: 0.0889% | –
3 | O=C(CNC(=O)c1ccccc1)OCc1cccc(Br)c1 | inconclusive: 13.8% | –
4 | O=C(Cc1ccc(Cl)c(Cl)c1)Nc1ccc(S(=O)(=O)Nc2ncccn2)cc1 | inactive | –
5 | Cn1c2ccccc2c2cc(C(=O)NNS(=O)(=O)c3ccc(F)cc3)sc21 | inconclusive: 8.7% | –
6 | COc1cccc2c(=O)n(CC(=O)Nc3ccc(F)cc3)ccc12 | inconclusive: 9.34% | –
7 | CCN(C(=O)c1ccc2c(c1)N(Cc1cccc(Cl)c1)C(=O)c1ccccc1S2=O)c1ccccc1 (stereo not given) | inactive | –
8 | CCOC(=O)c1c(NC(=O)COC(=O)C2CCC2)sc(C(=O)N(C)C)c1C | inconclusive: -23.5% | –
9 | COCCCNC(=O)CN1C(=O)COc2ccc(S(=O)(=O)N3CC(C)CC(C)C3)cc21 (stereo not given) | inactive | –
10 | Fc1ccc(-c2nc3ccccc3[nH]2)cc1 | inconclusive: -1.05% | –
11 | O=C1CCCC(O)=C1N=Nc1ccc(Cl)c(Cl)c1 | – | inconclusive: 11.2 µM [falling, partial curve, poor fit]
12 | O=C(CN1CCCCCC1)Nc1ccc(Oc2ccccc2)cc1 | inactive | –
13 | CCOc1ccccc1NC(=O)CN(c1ccc(C)cc1)S(=O)(=O)c1c(C)n[nH]c1C | inconclusive: 5.88% | –
14 | CCOC(=O)c1ccc(NC(=O)CSc2nc3ncc(Br)c(C)c3[nH]2)cc1 | – | inconclusive: 2 µM [falling, partial curve, poor fit]
15 | Cn1cccc1C(=O)NC(=O)COC(=O)c1ccc(O)cc1 | – | inconclusive: 5.17 µM [falling, partial curve, poor fit]
16 | CN(C)CCCNC(=O)/C(=N\O)c1ccccc1 | inconclusive: 20.8% | –
17 | O=C(/C=C/c1ccc(-c2ccc(F)cc2)o1)N1CCCC1 | inconclusive: 0.717% | –
18 | Cc1ccc2oc(-c3cccc(NC(=O)c4ccc(Br)o4)c3)nc2c1 | inconclusive: 17.5% | –
19 | CCOCc1nnc(NC(=O)C2CCN(C(=O)c3ccco3)CC2)s1 | inconclusive: 1.24% | –
20 | O=P(CCCCCCCCCP(=O)(c1ccccc1)c1ccccc1)(c1ccccc1)c1ccccc1 | – | inconclusive: 23.1 µM [rising, partial curve, poor fit]
21 | COc1ccc(-c2csc(NC(=O)CSC(C)C(=O)Nc3cc(C)on3)n2)cc1OC (stereo not given) | inconclusive: -8.71% | –
22 | O=C(CC(Nc1ccccc1)c1ccc(F)cc1)c1ccccc1 (stereo not given) | inconclusive: -7.31% | –
23 | O=C(N1CCOCC1)N1CCC(c2nc(-c3ccc(S(=O)(=O)N4CCOCC4)cc3)no2)CC1 | inconclusive: 13.2% | –
24 | O=S(=O)(c1cccs1)N1CN(C2CCCCC2)c2nc3ccccc3nc21 | inconclusive: -4.91% | –
25 | Cc1nc2ccc(Oc3ccccc3)cc2s1 | inconclusive: 1.93% | –

Fetched by compound from above, 2 records:
Row | SMILES | activity change, negative = inhibition | Potency
15 | Cn1cccc1C(=O)NC(=O)COC(=O)c1ccc(O)cc1 | – | inconclusive: 5.17 µM [falling, partial curve, poor fit]
25 | Cc1nc2ccc(Oc3ccccc3)cc2s1 | inconclusive: 1.93% | –

The list goes on.

Row | SMILES | activity change, negative = inhibition | Potency
26 | CCCCCC(=O)N1CC2(CC(c3cccc(NC(=O)COc4ccc(Cl)cc4)c3)=NO2)C[C@@H]1C(N)=O (stereo not given in full) | inconclusive: -18.6% | –
27 | Cc1cc(C(=O)CCC(=O)NCC2COc3ccccc3O2)c(C)s1 (stereo not given) | inconclusive: 1.54% | –
28 | C=C(C)COc1ccc2c(CC)cc(=O)oc2c1 | inconclusive: -2.42% | –
29 | O=C(CN1CCC(C(=O)c2ccc3c(c2)OCCO3)CC1)NCc1ccccc1 | inconclusive: -14.8% | –
30 | Cc1ccccc1OCC(O)Cn1c(SC(C)C)nc2c1c(=O)[nH]c(=O)n2C (stereo not given) | inconclusive: -4.72% | –
31 | COc1ccc(C(C)=O)cc1CSc1nnnn1-c1ccc(O)cc1 | inactive | –
32 | COc1ccc(C2CC(c3ccccc3C(F)(F)F)=NN2c2ccc(S(N)(=O)=O)cc2)cc1 (stereo not given) | inactive | –
33 | COc1ccccc1C(=O)Nc1cccc(SC)c1 | – | inconclusive: 29.1 µM [falling, single point]
34 | CCCC(=O)Nc1nc(-c2ccc(OC)cc2)cs1 | inconclusive: 8.13% | –
35 | CC(=O)Oc1ccc(NC(=O)C2CCCCC2)c(C(=O)O)c1 | – | inconclusive: 5.17 µM [rising, full curve, poor fit]
36 | O=C1/C(=C\c2ccco2)SC(=S)N1c1ccc(O)cc1 | – | inconclusive: 25.9 µM [falling, partial curve, poor fit]
37 | COC(=O)c1ccc(C)c(NS(=O)(=O)c2ccc(OC)cc2)c1 | – | inconclusive: 1.84 µM [falling, full curve]
38 | NS(=O)(=O)c1ccc(CNC(=O)c2ccc(NS(=O)(=O)c3ccc4[nH]c(=O)[nH]c4c3)cc2)cc1 | inconclusive: 3.31% | –
39 | COc1ccc(NS(=O)(=O)c2cccc(C(=O)NNC(=O)CNC(=O)c3ccccc3)c2)cc1 | inconclusive: 4.01% | –
40 | CC(C)(C)c1cc(NCc2ccccn2)n2ncc(-c3ccccc3)c2n1 | – | inconclusive: 17.8 µM [rising, partial curve, poor fit]
41 | O=C1C=C(c2ccc3ccccc3c2)C[C@@H](c2ccc(F)cc2)C1 | inconclusive: 11.6% | –
42 | Cc1cc2ccccc2nc1SCC(=O)NC1CCCCC1 | – | inconclusive: 4.47 µM [rising, partial curve]
43 | Cc1[nH][nH]c(=O)c1C(c1ccc(O)c(Br)c1)c1c(C)[nH][nH]c1=O | – | inconclusive: 12.6 µM [falling, partial curve]
44 | N/C(=N\N=C\c1ccc(O)cc1)c1nonc1N | – | inconclusive: 15.8 µM [falling, partial curve]
45 | COC(=O)c1ccc(COC(=O)c2ccc(S(=O)(=O)N3CCC(C)CC3)cc2)o1 | inconclusive: 21.3% | –
46 | COc1ccc(C)cc1Nc1n[n+](-c2ccccc2)c(-c2c(OC)ccc3ccccc23)s1 | inactive | –
47 | CCc1cc(C(=O)NC2CCCc3c2cnn3-c2cccc(C)c2C)n(C)n1 (stereo not given) | inactive | –
48 | COc1cccc(-c2ncc3ccccc3c2COC(=O)c2ccccc2C(=O)O)c1 | – | inconclusive: 23.1 µM [falling, partial curve]
49 | COc1ccc(-n2nc3c(N4CCC(C(=O)NCc5ccco5)CC4)nnc(C)c3c2C)cc1 | inactive | –
50 | CCOCCCNC(=O)c1ccc2c(c1)NC(=O)C(CS(=O)(=O)Cc1ccc(F)cc1Cl)N2 (stereo not given) | inactive | –
